# Results taken from the supplement of paper PMC12259267, “Disruption of the KLHL37–N-Myc complex restores N-Myc degradation and arrests neuroblastoma growth in mouse models” (The Journal of Clinical Investigation, 2025).
# “And” between values parts separate entries of the source, which are not always exact repeats. Equal entries are not always repeated. Structures can show the parent of a compound that is named as a salt. The list shows a part of the results. Many values rest on one well or one pass, so single values are uncertain. Square brackets hold non-standard residues; d marks the D form. Peptide text beside a SMILES is read from it. Nle = CCCC[C@H](N)C(=O)O
# Test system: SK-N-BE(2)
# Assay: inhibition of N-Myc immunofluorescence signal per cell relative to control (fraction); higher = stronger N-Myc protein reduction
# Details: 1 µM; 9 h
row,SMILES,inhibition of N-Myc immunofluorescence signal per cell
1,Nc1c(S(=O)(=O)c2ccccc2)c2nc3ccccc3nc2n1-c1ccc(F)cc1,0.129
2,"Cc1ncsc1-c1ccc([C@H](C)NC(=O)[C@@H]2C[C@@H](O)CN2C(=O)[C@@H](N)C(C)(C)C)cc1 [(S,R,S)-AHPC-Me (dihydrochloride)]",-0.402
3,Cc1ncsc1-c1ccc(CNC(=O)[C@@H]2C[C@@H](O)CN2C(=O)[C@@H](NC(=O)C2(F)CC2)C(C)(C)C)c(O)c1 [VH032-cyclopropane-F],0.179
4,O=C1c2ccccc2C(=O)c2oc(-c3ccccc3)nc21,0.0588
5,NCc1cccc(CNc2ncnc3c(N4CCN(Cc5ccccc5)CC4)ncnc23)c1,0.17
6,CC(C)c1c(-c2ccccc2)nc2c(C#N)c[nH]n2c1=O,0.0294
7,OCCNCc1cc(Br)ccc1OCc1ccc(F)c(C(F)(F)F)c1 [USP25/28 inhibitor AZ1],0.102
8,Cc1nc2cccc(N)c2c(=O)n1C1CCC(=O)NC1=O (stereo unspecified) [Avadomide],-0.0885
9,CCN(CC)C(=O)c1ccc(-c2cc(NCCCN3CCCCC3)c3ccccc3n2)cc1 [LMPTP INHIBITOR 1 (dihydrochloride)],0.0798
10,O=C(NC[C@H](O)CN1CCc2ccccc2C1)c1ccnc(NC2CCC2)c1,0.0246
11,Nc1ccccc1NC(=O)CCCCCC(=O)Nc1ccccc1,-0.144
12,COc1cc(C(=O)O)ccc1NC(=O)[C@@H]1N[C@@H](CC(C)(C)C)[C@](C#N)(c2ccc(Cl)cc2F)[C@H]1c1cccc(Cl)c1F [Idasanutlin],-0.00624
13,Fc1ccc(C(CCCNCC2CCc3[nH]c4ccc(F)cc4c3C2)c2ccc(F)cc2)cc1 (stereo unspecified),0.115
14,O=C(NCC(=O)N1CCCC1)Nc1ccc2cnccc2c1,0.0432
15,N#C/C(=C\c1ccc(-c2cc(Cl)ccc2Cl)o1)C(=O)Nc1cccc2ncccc12,-0.0176
16,c1ccc(-c2ccc(CNCCNCc3ccc(-c4ccccn4)cc3)cc2)nc1,0.0224
17,Nc1cccc2c1CN(C1CCC(=O)NC1=O)C2=O (stereo unspecified) [Lenalidomide (hemihydrate)],0.34
18,COC(=O)[C@H](CCSC)NC(=O)c1ccc(CNCc2cnc[nH]2)cc1-c1ccccc1C,0.0563

# Among those listed so far, 3 contain a cyano group:
row,SMILES,inhibition of N-Myc immunofluorescence signal per cell
6,CC(C)c1c(-c2ccccc2)nc2c(C#N)c[nH]n2c1=O,0.0294
12,COc1cc(C(=O)O)ccc1NC(=O)[C@@H]1N[C@@H](CC(C)(C)C)[C@](C#N)(c2ccc(Cl)cc2F)[C@H]1c1cccc(Cl)c1F [Idasanutlin],-0.00624
15,N#C/C(=C\c1ccc(-c2cc(Cl)ccc2Cl)o1)C(=O)Nc1cccc2ncccc12,-0.0176

# (next part)

row,SMILES,inhibition of N-Myc immunofluorescence signal per cell
1,CC(C)N(CCCNC(=O)Nc1ccc(C(C)(C)C)cc1)C[C@H]1O[C@@H](n2cc(Br)c3c(N)ncnc32)[C@H](O)[C@@H]1O,-0.259
2,O=C(Nc1ccccc1-c1cn2c(CN3CC[C@@H](O)C3)csc2n1)c1ccc2ccccc2c1,-0.0737
3,Clc1cc2c(NC3CCCC3)nnc(-c3ccncc3)c2cc1Cl,-0.108
4,CSCC[C@H](NC(=O)c1ccc(NC[C@@H](N)CS)cc1-c1ccccc1)C(=O)O,0.0318
5,CCCC[C@@H](C=O)NC(=O)[C@H](CC(C)C)NC(=O)[C@H](CC(C)C)NC(C)=O (Ac-Leu-Leu-[Nle]-aldehyde),0.109
6,CCOC(=O)NCCCC(=O)NCCc1ccccc1 [Santacruzamate A],0.177
7,COC(=O)C1=C(C(=O)OC)[C@@]2([C@@H](Cc3ccc(C)cc3)Nc3ccccc3)C=C[C@@H]1O2,-0.0938
8,O=C(CCl)Nc1cccc(NC2=NS(=O)(=O)c3ccccc32)c1,-0.122
9,O=C(O)/C(S)=C/c1ccc(I)cc1,0.246
10,Cc1sc(C(=O)c2cncnc2N[C@@H]2C[C@H](COS(N)(=O)=O)[C@@H](O)C2)cc1[C@@H]1NCCc2ccc(Cl)cc21,0.266
11,NC(=O)c1cccnc1 [Nicotinamide],0.085
12,C/C(=N\NC(=O)c1cccc(S(=O)(=O)N2CCOCC2)c1)c1cc(Cl)ccc1O,0.122
13,CC(C)(C)C[C@@H]1N[C@@H](C(=O)N[C@H]2CC[C@H](O)CC2)[C@H](c2cccc(Cl)c2F)[C@]12C(=O)Nc1cc(Cl)ccc12,0.108 and 0.116
14,CC(=O)c1cc([N+](=O)[O-])c(Sc2ccc(F)cc2F)s1,0.00338
15,CC[C@@]1(O)C[C@H](O[C@H]2C[C@H](N(C)C)[C@H](O[C@H]3C[C@H](O)[C@H](O[C@H]4CCC(=O)[C@H](C)O4)[C@H](C)O3)[C@H](C)O2)c2c(cc3c(c2O)C(=O)c2c(O)cccc2C3=O)[C@H]1C(=O)OC [Aclacinomycin A hydrochloride],0.553
16,CCCCCCCCCCCCCC(=S)NCCCC[C@H](NC(=O)OCc1ccccc1)C(=O)Nc1ccccc1 [Thiomyristoyl],0.149
17,NS(=O)(=O)OC[C@H]1C[C@@H](Nc2ncncc2C(=O)c2ccn(Cc3cccc(Br)c3)n2)C[C@@H]1O,0.0528
18,CCOc1cc(C(C)(C)C)ccc1C1=N[C@@](C)(c2ccc(Cl)cc2)[C@@](C)(c2ccc(Cl)cc2)N1C(=O)N1CCN(CCCS(C)(=O)=O)CC1,0.228
